Consider 30 targets from the supplement of paper PMC10849652.

Sequences of proteins named here, by UniProt entry; tags and fusion partners are left off. A change or cut given only in a name is not applied to a line headed by its entry.
UniProt Q96DB5: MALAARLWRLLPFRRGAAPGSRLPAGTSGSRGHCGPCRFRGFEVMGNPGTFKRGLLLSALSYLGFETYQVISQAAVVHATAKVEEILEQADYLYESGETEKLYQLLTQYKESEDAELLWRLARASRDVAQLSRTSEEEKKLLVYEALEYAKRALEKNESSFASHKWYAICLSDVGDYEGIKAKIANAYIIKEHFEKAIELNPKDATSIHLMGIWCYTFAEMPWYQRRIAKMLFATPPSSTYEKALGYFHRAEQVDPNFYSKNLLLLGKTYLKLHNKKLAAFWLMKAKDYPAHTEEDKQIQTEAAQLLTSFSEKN
UniProt Q8TAC1: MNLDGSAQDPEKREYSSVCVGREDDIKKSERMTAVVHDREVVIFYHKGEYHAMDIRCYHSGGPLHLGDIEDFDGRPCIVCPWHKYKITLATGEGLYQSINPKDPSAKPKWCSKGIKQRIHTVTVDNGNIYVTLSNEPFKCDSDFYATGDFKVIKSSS
UniProt Q8WU17: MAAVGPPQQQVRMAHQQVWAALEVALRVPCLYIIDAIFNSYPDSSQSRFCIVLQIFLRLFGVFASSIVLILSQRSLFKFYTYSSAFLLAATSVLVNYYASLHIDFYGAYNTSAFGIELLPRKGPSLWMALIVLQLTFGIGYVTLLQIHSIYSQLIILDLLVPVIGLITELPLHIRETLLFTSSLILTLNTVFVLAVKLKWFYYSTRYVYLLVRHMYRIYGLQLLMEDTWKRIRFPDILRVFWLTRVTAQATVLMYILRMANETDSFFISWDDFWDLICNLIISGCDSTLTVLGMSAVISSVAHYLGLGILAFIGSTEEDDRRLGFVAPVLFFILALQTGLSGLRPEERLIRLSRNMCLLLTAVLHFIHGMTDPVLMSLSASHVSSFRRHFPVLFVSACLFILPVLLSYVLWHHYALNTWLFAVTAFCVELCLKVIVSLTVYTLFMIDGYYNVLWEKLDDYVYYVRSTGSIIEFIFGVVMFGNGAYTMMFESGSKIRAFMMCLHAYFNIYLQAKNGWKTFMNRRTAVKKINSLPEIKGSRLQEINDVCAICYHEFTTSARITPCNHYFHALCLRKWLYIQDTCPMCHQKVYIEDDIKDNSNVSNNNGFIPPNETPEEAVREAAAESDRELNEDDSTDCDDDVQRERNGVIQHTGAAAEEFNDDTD
UniProt Q4ADV7: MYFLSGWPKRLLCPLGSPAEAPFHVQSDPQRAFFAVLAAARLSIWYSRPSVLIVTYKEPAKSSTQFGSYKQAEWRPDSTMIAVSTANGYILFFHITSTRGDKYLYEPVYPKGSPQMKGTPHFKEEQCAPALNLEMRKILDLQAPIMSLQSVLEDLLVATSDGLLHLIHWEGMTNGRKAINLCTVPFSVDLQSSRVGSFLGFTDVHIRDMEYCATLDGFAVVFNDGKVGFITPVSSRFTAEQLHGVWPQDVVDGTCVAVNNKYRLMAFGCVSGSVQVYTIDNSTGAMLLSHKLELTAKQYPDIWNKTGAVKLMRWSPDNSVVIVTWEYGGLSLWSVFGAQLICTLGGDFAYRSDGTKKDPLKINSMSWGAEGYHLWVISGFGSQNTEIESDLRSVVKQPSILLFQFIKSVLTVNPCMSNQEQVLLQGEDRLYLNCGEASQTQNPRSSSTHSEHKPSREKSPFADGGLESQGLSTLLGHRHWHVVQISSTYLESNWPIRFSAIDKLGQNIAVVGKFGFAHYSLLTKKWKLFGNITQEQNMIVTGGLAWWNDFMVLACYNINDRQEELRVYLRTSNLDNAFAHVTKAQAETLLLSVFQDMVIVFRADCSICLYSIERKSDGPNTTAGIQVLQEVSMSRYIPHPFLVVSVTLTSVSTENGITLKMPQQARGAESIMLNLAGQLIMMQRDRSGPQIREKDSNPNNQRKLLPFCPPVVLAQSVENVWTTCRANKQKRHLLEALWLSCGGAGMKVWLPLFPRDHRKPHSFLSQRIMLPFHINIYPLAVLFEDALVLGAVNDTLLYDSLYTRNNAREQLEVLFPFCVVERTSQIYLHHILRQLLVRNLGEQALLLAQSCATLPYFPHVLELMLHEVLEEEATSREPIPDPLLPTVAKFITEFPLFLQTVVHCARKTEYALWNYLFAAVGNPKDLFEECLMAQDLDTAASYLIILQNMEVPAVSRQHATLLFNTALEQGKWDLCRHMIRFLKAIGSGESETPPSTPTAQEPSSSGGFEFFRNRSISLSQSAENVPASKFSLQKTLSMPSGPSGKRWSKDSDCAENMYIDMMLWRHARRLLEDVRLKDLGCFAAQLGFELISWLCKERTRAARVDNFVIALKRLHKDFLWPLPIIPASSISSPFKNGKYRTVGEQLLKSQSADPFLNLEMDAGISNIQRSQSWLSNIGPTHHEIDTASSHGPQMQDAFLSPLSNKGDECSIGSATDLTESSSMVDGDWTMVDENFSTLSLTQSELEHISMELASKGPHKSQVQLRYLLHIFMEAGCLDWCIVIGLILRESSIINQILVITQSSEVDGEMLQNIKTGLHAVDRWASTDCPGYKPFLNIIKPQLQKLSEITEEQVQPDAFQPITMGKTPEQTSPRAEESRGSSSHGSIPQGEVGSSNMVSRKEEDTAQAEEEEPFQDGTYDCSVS
UniProt Q96HR9: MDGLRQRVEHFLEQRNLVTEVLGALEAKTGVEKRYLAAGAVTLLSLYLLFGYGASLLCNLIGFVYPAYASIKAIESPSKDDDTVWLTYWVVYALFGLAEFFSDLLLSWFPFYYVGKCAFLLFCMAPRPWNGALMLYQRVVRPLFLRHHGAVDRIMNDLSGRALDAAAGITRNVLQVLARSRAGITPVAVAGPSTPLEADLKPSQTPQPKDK
UniProt P35241, whole entry, looked up: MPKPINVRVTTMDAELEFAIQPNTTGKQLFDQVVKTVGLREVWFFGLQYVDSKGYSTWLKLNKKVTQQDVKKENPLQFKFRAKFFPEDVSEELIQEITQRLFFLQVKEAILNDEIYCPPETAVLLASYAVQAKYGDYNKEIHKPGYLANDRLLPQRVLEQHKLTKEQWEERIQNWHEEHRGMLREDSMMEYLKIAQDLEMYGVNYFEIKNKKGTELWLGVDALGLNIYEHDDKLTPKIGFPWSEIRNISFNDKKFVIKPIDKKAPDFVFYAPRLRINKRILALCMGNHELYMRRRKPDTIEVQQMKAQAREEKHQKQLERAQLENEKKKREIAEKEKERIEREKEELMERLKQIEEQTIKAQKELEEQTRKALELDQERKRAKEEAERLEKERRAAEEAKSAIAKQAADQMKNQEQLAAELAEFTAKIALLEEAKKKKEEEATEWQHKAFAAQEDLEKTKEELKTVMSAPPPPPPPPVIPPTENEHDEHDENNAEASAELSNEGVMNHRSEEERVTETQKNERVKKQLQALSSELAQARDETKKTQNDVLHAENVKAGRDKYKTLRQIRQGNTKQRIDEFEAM
UniProt Q96AA3: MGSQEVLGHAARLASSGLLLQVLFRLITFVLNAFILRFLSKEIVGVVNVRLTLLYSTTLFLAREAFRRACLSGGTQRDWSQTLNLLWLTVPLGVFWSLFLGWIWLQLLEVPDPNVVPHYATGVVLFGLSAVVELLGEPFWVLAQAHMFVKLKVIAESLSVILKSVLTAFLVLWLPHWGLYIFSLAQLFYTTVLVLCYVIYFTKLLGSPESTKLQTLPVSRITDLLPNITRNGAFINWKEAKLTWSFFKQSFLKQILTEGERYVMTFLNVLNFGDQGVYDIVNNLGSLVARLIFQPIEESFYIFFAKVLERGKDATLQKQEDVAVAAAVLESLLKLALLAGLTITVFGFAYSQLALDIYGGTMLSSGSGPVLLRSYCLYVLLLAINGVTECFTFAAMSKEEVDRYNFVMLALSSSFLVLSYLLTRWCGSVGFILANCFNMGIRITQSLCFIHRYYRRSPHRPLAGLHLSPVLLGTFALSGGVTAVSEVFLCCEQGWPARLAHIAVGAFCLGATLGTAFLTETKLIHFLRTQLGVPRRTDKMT
UniProt Q9Y225: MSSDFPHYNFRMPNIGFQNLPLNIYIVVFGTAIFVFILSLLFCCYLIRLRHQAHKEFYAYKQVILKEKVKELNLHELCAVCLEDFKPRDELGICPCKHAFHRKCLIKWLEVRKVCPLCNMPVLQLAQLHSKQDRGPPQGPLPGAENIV
UniProt Q9NWS8: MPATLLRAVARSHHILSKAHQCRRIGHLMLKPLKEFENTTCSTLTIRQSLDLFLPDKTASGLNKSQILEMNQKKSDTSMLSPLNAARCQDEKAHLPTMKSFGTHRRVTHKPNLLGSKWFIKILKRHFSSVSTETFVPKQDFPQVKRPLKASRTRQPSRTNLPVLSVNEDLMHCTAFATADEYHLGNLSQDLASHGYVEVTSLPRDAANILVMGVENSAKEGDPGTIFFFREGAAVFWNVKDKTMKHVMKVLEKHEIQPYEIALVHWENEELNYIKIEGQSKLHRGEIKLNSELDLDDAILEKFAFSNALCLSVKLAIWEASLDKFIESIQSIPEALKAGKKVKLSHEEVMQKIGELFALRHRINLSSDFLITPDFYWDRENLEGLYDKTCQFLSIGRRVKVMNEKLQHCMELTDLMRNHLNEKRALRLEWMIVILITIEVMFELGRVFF
UniProt Q9NVW2: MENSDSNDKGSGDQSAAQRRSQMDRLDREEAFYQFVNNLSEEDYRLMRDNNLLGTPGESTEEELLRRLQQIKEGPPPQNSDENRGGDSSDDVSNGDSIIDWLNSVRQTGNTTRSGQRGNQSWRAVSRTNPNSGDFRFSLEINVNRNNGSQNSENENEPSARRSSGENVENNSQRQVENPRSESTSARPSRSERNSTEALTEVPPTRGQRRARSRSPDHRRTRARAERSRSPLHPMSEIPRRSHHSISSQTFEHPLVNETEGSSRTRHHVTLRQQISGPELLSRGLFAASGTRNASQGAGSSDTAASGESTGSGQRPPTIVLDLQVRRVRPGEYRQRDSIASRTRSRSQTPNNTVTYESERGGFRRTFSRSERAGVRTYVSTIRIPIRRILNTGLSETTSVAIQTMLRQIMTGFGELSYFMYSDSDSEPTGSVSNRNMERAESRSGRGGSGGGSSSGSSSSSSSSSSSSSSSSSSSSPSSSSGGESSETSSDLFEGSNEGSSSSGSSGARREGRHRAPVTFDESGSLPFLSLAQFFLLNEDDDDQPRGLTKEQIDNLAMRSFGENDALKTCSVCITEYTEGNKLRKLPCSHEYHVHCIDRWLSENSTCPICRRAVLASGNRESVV
UniProt Q8TEB9: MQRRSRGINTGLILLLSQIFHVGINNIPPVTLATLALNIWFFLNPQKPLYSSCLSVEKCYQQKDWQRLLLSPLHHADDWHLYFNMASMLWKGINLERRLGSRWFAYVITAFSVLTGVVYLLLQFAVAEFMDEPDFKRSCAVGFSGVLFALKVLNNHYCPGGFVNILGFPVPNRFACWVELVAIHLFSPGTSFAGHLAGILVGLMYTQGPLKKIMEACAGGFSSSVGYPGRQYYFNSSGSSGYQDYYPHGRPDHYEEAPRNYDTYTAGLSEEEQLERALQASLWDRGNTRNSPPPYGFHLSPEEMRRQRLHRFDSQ
UniProt Q8IXI1, whole entry, looked up: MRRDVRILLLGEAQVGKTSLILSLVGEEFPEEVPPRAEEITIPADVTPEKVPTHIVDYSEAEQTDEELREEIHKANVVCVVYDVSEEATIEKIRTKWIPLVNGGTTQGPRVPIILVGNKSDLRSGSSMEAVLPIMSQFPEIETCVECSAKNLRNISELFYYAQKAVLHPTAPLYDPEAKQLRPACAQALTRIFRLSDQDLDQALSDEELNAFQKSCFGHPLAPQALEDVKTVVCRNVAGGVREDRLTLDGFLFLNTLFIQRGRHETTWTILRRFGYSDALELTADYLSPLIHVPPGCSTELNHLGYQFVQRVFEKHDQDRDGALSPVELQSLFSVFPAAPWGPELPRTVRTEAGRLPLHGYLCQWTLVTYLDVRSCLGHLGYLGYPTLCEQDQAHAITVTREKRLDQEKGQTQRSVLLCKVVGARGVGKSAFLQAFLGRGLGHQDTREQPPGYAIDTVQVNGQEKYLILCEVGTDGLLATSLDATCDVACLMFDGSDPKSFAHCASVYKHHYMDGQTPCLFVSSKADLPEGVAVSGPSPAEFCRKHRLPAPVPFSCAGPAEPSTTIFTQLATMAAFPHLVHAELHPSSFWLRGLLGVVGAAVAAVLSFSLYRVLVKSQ
UniProt Q8NC42: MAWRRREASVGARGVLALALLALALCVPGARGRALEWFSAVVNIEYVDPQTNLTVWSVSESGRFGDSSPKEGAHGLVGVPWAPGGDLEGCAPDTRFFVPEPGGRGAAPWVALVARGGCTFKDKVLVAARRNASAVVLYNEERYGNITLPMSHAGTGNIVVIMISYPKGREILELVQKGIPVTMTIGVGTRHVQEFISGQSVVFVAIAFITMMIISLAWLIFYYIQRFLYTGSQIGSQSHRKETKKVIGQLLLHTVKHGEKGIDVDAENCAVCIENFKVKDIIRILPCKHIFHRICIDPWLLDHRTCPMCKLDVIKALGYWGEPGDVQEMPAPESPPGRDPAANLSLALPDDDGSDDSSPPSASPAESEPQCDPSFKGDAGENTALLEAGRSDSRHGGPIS
UniProt P82980: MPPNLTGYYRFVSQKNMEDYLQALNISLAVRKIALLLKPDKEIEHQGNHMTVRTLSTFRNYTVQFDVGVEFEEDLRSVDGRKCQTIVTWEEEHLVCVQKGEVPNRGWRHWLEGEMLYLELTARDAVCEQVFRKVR

The other results are listed elsewhere or left out.

Compound in the test: c1cn2cc(-c3ccc4cn[nH]c4c3)nc(Nc3ccc(N4CCOCC4)cc3)c2n1 [entospletinib]
Kind of test: log2 fold change, soluble protein after heating vs DMSO (PISA); higher = thermal stabilisation; K562 cells, 10 uM, 30 min; active = over 0.2 and 3.5 SD of the protein, either way, in both replicates (recomputed). The method in brief:
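Thermal stability values are relative to control samples and come from duplicates. They are expressed as log2 fold changes. For measurement, K562 cells (2×10^6 cells/mL) received 10 μM compound for 30 min, and aliquots were heated for 3 min over 48°C-58°C, pooled, and extracted at 4°C in PBS with 0.5% NP-40. Soluble protein, the supernatant after 21,000xg for 90 min, was quantified by TMTpro 16plex LC-MS/MS with equalised channel sums.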
Turning to RMDN1 (UniProt Q96DB5), the log2 fold change was inactive: 0.013. As for RC3H1 (UniProt Q5TC82), the log2 fold change was inactive: 0.156. Consider RFESD isoform 2 (UniProt Q8TAC1), for which the log2 fold change is inactive: 0.013. Regarding RER1 (UniProt O15258), the log2 fold change is inactive: 0.076. With RNF139 (UniProt Q8WU17) the figure was inactive: -0.029. With RIC1 (UniProt Q4ADV7) the figure was inactive: -0.012; with REEP6 (UniProt Q96HR9), inactive: 0.03.

For RNF181 (UniProt Q9P0P0), the log2 fold change was inactive: 0.003. With RFK (UniProt Q969G6) the figure was inactive: -0.005; with RENBP (UniProt P51606), inactive: -0.04; with RIDA (UniProt P52758), inactive: 0.017. With RDX (UniProt P35241) the figure was inactive: 0.001; with RFC2 (UniProt P35250), inactive: -0.063. With REEP3 (UniProt Q6NUK4) the figure was inactive: -0.126; with RIF1 (UniProt Q5UIP0), inactive: 0.163; with RBMX (UniProt P38159), inactive: 0.003. Turning to RBPJ (UniProt Q06330), the log2 fold change is inactive: -0.016. Take RGS14 (UniProt O43566): the log2 fold change is inactive: 0.021. In the case of RFT1 (UniProt Q96AA3), the log2 fold change is inactive: -0.004. With RNF24 isoform 2 (UniProt Q9Y225) the figure was inactive: 0.026. With RMND1 (UniProt Q9NWS8) the figure was inactive: 0.086; with RLIM (UniProt Q9NVW2), inactive: -0.122; with RHBDD1 (UniProt Q8TEB9), inactive: 0.042. With RCL1 (UniProt Q9Y2P8) the figure was inactive: 0.062; with RHOT2 (UniProt Q8IXI1), inactive: -0.042. With RNF123 isoform 2 (UniProt Q5XPI4), the log2 fold change was inactive: -0.002. Take RNF146 (UniProt Q9NTX7): the log2 fold change was inactive: 0.057. For RBP4 (UniProt P02753), the log2 fold change was inactive: 0.06. With RNF149 (UniProt Q8NC42) the figure was inactive: -0.016; with RBP5 (UniProt P82980), inactive: -0.341.
